Experimental data published in paper PMC10341556.
No constants are given. Whether binding was seen depends on the method and setting. In cells and extracts the contact can be indirect. Some entries that bind do so weakly or less than the wild type. Where a sequence is shown, tags or fusion partners need not be part of it.

Molecular target: T1, interferon regulatory factor 7 (IRF7), Flag-tagged (UniProt P70434)
T1 sequence: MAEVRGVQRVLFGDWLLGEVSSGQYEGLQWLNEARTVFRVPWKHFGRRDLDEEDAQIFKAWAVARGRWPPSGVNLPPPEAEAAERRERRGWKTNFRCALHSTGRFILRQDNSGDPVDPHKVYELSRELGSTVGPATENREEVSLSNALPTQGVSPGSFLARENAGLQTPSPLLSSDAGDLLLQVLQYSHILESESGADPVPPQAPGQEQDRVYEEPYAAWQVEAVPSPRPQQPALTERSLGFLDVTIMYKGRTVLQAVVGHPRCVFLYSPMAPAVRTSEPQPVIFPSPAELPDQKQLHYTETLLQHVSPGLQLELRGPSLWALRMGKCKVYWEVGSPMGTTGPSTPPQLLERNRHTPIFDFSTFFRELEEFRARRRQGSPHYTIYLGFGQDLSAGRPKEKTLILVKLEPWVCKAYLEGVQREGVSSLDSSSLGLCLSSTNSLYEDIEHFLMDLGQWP
Assay: co-IP

B1: tripartite-motif protein 21 (TRIM21), HA-tagged (protein, UniProt Q62191 1-470)
chain: MSPSTTSKMSLEKMWEEVTCSICLDPMVEPMSIECGHCFCKECIFEVGKNGGSSCPECRQQFLLRNLRPNRHIANMVENLKQIAQNTKKSTQETHCMKHGEKLHLFCEEDGQALCWVCAQSGKHRDHTRVPIEEAAKVYQEKIHVVLEKLRKGKELAEKMEMDLTMQRTDWKRNIDTQKSRIHAEFALQNSLLAQEEQRQLQRLEKDQREYLRLLGKKEAELAEKNQALQELISELERRIRGSELELLQEVRIILERSGSWNLDTLDIDAPDLTSTCPVPGRKKMLRTCWVHITLDRNTANSWLIISKDRRQVRMGDTHQNVSDNKERFSNYPMVLGAQRFSSGKMYWEVDVTQKEAWDLGVCRDSVQRKGQFSLSPENGFWTIWLWQDSYEAGTSPQTTLHIQVPPCQIGIFVDYEAGVVSFYNITDHGSLIYTFSECVFAGPLRPFFNVGFNYSGGNAAPLKLCPLKM
binding: binds
